PubChem BioAssay AID504774, Drosophila RNAi Screening Center, 2011

Purpose: 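Knock-downs that shift viability of MMS-exposed cells relative to untreated ones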 (primary screen)
Cell system: Drosophila Kc167 cells
Knock-down reagent: long dsRNA against Drosophila genes, about 0.25 µg dsRNA per well
Timing: about 6 days: 3 days knock-down, then 3 days with or without MMS
Challenge: methyl methanesulphonate 0.004% (w/v) for 3 days after knock-down
Measurement: 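Viability in wells given MMS, read as ATP luminescence, normalised by quantiles plate by plate and averaged across replicates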
Direction: mean viability with MMS and viability with MMS: higher = more surviving cells after MMS
In all, the deposit lists about 23,000 reagents; this is a random part of those with a known target gene and a result. 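Values are quantile-normalised luminescence on an arbitrary scale; higher means more cells surviving MMS.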 The numbers tell different reagents against one gene apart. Further read-outs or replicates are left out here.

Target gene	reagent no.	mean viability with MMS	viability with MMS, replicate 1
Clp	1	3.43e6	3.89e6
lncRNA:CR32690	1	3.51e6	3.95e6
Argk2	1	3.39e6	3.72e6
Argk2	2	3.00e6	3.16e6
inaF-A	1	3.66e6	4.11e6
Hat1	1	3.67e6	4.30e6
CG12662	1	3.31e6	3.62e6
CG14445	1	3.45e6	3.91e6
dj	1	3.39e6	3.85e6
Alg12	1	3.51e6	4.04e6
RpS30	1	2.89e6	3.55e6
CG3706	1	3.56e6	3.89e6
ScsbetaG	1	3.45e6	3.92e6
CG15483	1	3.73e6	4.15e6
CG9497	1	3.57e6	4.08e6
MED15	1	2.72e6	3.11e6
byn	1	3.89e6	4.34e6
CG14566	1	3.66e6	4.12e6
Prosalpha6T	1	3.52e6	4.03e6
FER	1	3.44e6	4.02e6
FER	2	3.50e6	3.94e6
GluClalpha	1	3.62e6	3.97e6
DCP2	1	3.46e6	3.90e6
xmas	1	3.45e6	3.96e6
xmas	2	3.67e6	4.08e6
CG4282	1	3.61e6	4.17e6
CG5567	1	3.62e6	4.25e6
Rpp25	1	3.37e6	3.80e6
car	1	3.55e6	4.04e6
CG8837	1	3.63e6	4.09e6
Nha2	1	3.77e6	4.24e6
Nha2	2	3.23e6	3.67e6
Nha2	3	3.77e6	4.29e6
Cpr50Cb	1	3.47e6	4.06e6
Roe1	1	3.62e6	4.15e6
Cyp310a1	1	3.62e6	4.05e6
Osi21	1	3.43e6	3.78e6
Rtf1	1	3.26e6	4.20e6
Spn43Aa	1	3.71e6	4.09e6

Taken from above.
Entry for FER #2 in “viability with MMS, replicate 1”: 3.94e6
Value for CG12662 under “mean viability with MMS”: 3.31e6
ScsbetaG, mean viability with MMS: 3.45e6
Alg12, mean viability with MMS: 3.51e6

Further records:
Target gene	reagent no.	mean viability with MMS	viability with MMS, replicate 1
LSm7	1	3.44e6	3.90e6
mRpS18A	1	3.58e6	4.06e6
Vml	1	3.52e6	4.02e6
Vml	2	3.39e6	3.71e6
Faf2	1	3.56e6	4.09e6
idc	1	3.43e6	3.93e6
ND-51L2	1	3.54e6	4.29e6
vap	1	3.51e6	3.96e6
Lrpprc2	1	3.49e6	4.04e6
twi	1	3.20e6	3.63e6
twi	2	3.58e6	4.03e6
CG33262	1	3.34e6	3.90e6
csul	1	3.62e6	3.94e6
CG17991	1	3.49e6	3.98e6
CG14414	1	3.53e6	3.95e6
CG30048	1	3.52e6	4.00e6
CG31457	1	3.66e6	4.01e6
isoQC	1	3.67e6	4.18e6
CG3740	1	3.37e6	3.90e6
dpr17	1	3.53e6	4.13e6
dpr17	2	2.95e6	3.65e6
dpr17	3	3.53e6	4.03e6
CG10301	1	3.64e6	4.15e6
CG7987	1	3.45e6	3.88e6
CG9586	1	3.72e6	4.39e6
CG33253	1	3.71e6	4.18e6
CG33253	2	3.63e6	4.03e6
Ccp84Ad	1	3.49e6	4.08e6
Ccp84Ad	2	3.40e6	3.90e6
cas	1	3.60e6	4.22e6
CG5653	1	3.49e6	4.03e6
CG4622	1	3.50e6	3.79e6
CG12926	1	3.50e6	3.98e6
CG12926	2	3.50e6	4.02e6
RapGAP1	1	3.61e6	4.05e6
RapGAP1	2	3.46e6	3.90e6
RapGAP1	3	3.58e6	3.96e6
aay	1	3.49e6	3.89e6
CG3919	1	3.46e6	3.90e6
l(3)mbn	1	3.51e6	4.06e6
Dred	1	3.50e6	3.89e6
Dred	2	1.98e6	4.09e6
Ir92a	1	3.69e6	4.12e6
CG12920	1	3.70e6	4.20e6
CG9213	1	3.50e6	3.97e6
Ilp2	1	3.43e6	3.90e6
CG2218	1	3.64e6	4.10e6
CG34002	1	3.70e6	4.35e6
CG34002	2	3.51e6	3.96e6
